Data: patent publication US20100068181A1, “PYRROLO [3, 2-A] PYRIDINE DERIVATIVES FOR INHIBITING KSP KINESIN ACTIVITY” (Schering Corporation, priority 2006, published 2010)

Chains of the proteins cited; added tags and fusions are not shown.
UniProt P52732, whole entry: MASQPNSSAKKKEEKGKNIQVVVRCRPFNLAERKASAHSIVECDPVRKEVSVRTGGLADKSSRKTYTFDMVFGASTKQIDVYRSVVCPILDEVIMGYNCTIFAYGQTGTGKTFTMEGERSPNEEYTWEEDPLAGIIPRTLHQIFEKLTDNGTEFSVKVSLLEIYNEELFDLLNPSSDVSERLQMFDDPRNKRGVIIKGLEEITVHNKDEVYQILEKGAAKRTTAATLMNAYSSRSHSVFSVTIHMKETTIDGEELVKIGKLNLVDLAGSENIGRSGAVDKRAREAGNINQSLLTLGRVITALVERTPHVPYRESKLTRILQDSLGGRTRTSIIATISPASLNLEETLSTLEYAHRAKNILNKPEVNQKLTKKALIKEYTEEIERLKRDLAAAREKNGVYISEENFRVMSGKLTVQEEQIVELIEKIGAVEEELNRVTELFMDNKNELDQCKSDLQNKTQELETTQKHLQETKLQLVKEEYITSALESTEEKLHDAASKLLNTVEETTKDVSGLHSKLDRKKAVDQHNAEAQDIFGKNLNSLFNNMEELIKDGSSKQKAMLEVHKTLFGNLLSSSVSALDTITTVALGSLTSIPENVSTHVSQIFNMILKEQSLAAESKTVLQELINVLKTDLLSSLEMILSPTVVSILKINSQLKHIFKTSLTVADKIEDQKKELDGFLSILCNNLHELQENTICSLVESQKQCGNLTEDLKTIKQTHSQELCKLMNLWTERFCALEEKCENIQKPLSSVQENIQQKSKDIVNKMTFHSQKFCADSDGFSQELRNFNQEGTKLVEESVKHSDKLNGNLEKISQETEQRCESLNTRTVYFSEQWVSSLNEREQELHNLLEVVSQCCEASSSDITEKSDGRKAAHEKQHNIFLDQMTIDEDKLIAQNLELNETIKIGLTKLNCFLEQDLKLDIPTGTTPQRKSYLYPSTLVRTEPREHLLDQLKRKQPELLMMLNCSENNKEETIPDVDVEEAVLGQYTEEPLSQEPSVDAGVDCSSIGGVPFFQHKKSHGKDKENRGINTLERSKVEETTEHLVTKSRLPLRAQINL

Target: KSP (Homo sapiens, UniProt P52732)
Assay: KSP inhibitory activity, end-point assay
Conditions: read-out: IC50 Rating; KSP inhibitory activity based on end-point assay

CC(C)(C)C1CCc2nc3c(CCCCO)c(C(=O)NCCN)[nH]c3cc2C1 (stereo not shown)
pIC50: 6.00 to 7.00

pIC50: −log10 of the molar value. The structures given here were assigned with low confidence; some may be wrong.
